In article PMC8115037, “Paracoccus denitrificans: a genetically tractable model system for studying respiratory complex I” (Scientific Reports, 2021):

Molecular target: T1, Nqo5 (NDUFS3) subunit of P. denitrificans complex I with a C-terminal Ala6-His6 tag (P. denitrificans) (UniProt P29917)
T1 sequence: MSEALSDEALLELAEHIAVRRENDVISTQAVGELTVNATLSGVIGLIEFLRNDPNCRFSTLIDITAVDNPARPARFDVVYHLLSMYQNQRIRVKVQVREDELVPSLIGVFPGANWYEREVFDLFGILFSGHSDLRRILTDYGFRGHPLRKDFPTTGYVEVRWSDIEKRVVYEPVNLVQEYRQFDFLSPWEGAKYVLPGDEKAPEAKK
Test: affinity purification with mass spectrometry; DDM-solubilised P. denitrificans membranes on a HisTrap HP Ni column by the His6 tag on Nqo5 (wash 40-80 mM imidazole, elution 200 mM imidazole, 20 mM MES pH 6.5, 400 mM NaCl, 0.1% DDM), then Superdex 200 SEC; SDS-PAGE bands digested with trypsin, MALDI peptide mass fingerprinting

Substance: PdN7BM, supernumerary subunit of P. denitrificans complex I
- binding: binds

Substance: PdNUMM, supernumerary subunit of P. denitrificans complex I
- binding: binds

Substance: PdNUYM, supernumerary subunit of P. denitrificans complex I
- binding: binds

Substance: elongation factor Tu
- binding: no binding

Substance: transcription termination factor Rho
- binding: no binding

These are yes or no findings as the source states them, for the method shown. Binding seen in cells or lysates may run through a third protein. Here binding means that the protein was enriched with, or labelled near, the bait; the list need not be complete. No binding means not detected with the bait. Tags and fused reporters may be left off the sequences shown.
